{"source": "PubChem BioAssay AID1259254 (NCATS, 2017)", "test": "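Finding genes that stop cells copying their DNA twice in one cycle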 (primary screen)", "cells": "human HCT116 colorectal cancer cells", "knock-down reagent": "single siRNA against human genes", "duration": "3 days", "measurement": "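Imaged Hoechst DNA stain sorts each cell into a cycle phase by DNA amount; per plate, G2 fraction set to 0% for non-targeting and 100% for GMNN siRNA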", "direction": "G2 robust z-score and G2 cells, % of GMNN control: higher = more G2 cells, more excess DNA replication", "call rule": "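An siRNA counts as active if its G2 robust z-score lies at least 5 MADs above the screen median; here such calls match roughly 38% of GMNN control or more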", "note": "The whole screen tested about 59,000 reagents; this is a random part of them. In the full data, about 1,550 (2.6%) got an active call. 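G2 share is only a proxy for re-replication; each gene was hit by three separate siRNAs, and active genes were retested.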 The numbers tell different reagents against one gene apart. Further read-outs or replicates are left out here. Not given: the amount of reagent."}
{"gene": "ZNF212", "reagent no.": 1, "G2 robust z-score": 3.53, "G2 cells, % of GMNN control": 27.8, "activity call": "inactive"}
{"gene": "ZNF212", "reagent no.": 2, "G2 robust z-score": 0.303, "G2 cells, % of GMNN control": 5.1, "activity call": "inactive"}
{"gene": "ZNF212", "reagent no.": 3, "G2 robust z-score": -0.852, "G2 cells, % of GMNN control": -3.03, "activity call": "inactive"}
{"gene": "ATP1A3", "reagent no.": 1, "G2 robust z-score": -1.46, "G2 cells, % of GMNN control": -7.28, "activity call": "inactive"}
{"gene": "ATP1A3", "reagent no.": 2, "G2 robust z-score": -0.432, "G2 cells, % of GMNN control": -0.0696, "activity call": "inactive"}
{"gene": "ATP1A3", "reagent no.": 3, "G2 robust z-score": 15.1, "G2 cells, % of GMNN control": 109, "activity call": "active"}
{"gene": "ACOT13", "reagent no.": 1, "G2 robust z-score": 1.03, "G2 cells, % of GMNN control": 10.2, "activity call": "inactive"}
{"gene": "ACOT13", "reagent no.": 2, "G2 robust z-score": -0.802, "G2 cells, % of GMNN control": -2.67, "activity call": "inactive"}
{"gene": "ACOT13", "reagent no.": 3, "G2 robust z-score": -0.415, "G2 cells, % of GMNN control": 0.051, "activity call": "inactive"}
{"gene": "PIK3C3", "reagent no.": 1, "G2 robust z-score": -0.371, "G2 cells, % of GMNN control": 0.357, "activity call": "inactive"}
{"gene": "PIK3C3", "reagent no.": 2, "G2 robust z-score": 1.73, "G2 cells, % of GMNN control": 15.1, "activity call": "inactive"}
{"gene": "PIK3C3", "reagent no.": 3, "G2 robust z-score": -0.05, "G2 cells, % of GMNN control": 2.62, "activity call": "inactive"}
{"gene": "SERGEF", "reagent no.": 1, "G2 robust z-score": 0.946, "G2 cells, % of GMNN control": 9.63, "activity call": "inactive"}
{"gene": "SERGEF", "reagent no.": 2, "G2 robust z-score": 0.0455, "G2 cells, % of GMNN control": 3.29, "activity call": "inactive"}
{"gene": "SERGEF", "reagent no.": 3, "G2 robust z-score": 0.779, "G2 cells, % of GMNN control": 8.45, "activity call": "inactive"}

Part of the list above, showing only “G2 cells, % of GMNN control”.
ZNF212 #2	5.1
ZNF212 #3	-3.03
ATP1A3 #1	-7.28

Further records follow:
{"gene": "OR6C2", "reagent no.": 1, "G2 robust z-score": 0.192, "G2 cells, % of GMNN control": 4.32, "activity call": "inactive"}
{"gene": "OR6C2", "reagent no.": 2, "G2 robust z-score": 1.35, "G2 cells, % of GMNN control": 12.5, "activity call": "inactive"}
{"gene": "OR6C2", "reagent no.": 3, "G2 robust z-score": 0.35, "G2 cells, % of GMNN control": 5.43, "activity call": "inactive"}
{"gene": "ERFL", "reagent no.": 1, "G2 robust z-score": -1.11, "G2 cells, % of GMNN control": -4.84, "activity call": "inactive"}
{"gene": "ERFL", "reagent no.": 2, "G2 robust z-score": 0.324, "G2 cells, % of GMNN control": 5.24, "activity call": "inactive"}
{"gene": "ERFL", "reagent no.": 3, "G2 robust z-score": 3.9, "G2 cells, % of GMNN control": 30.4, "activity call": "inactive"}
{"gene": "TARP", "reagent no.": 1, "G2 robust z-score": 3.61, "G2 cells, % of GMNN control": 28.4, "activity call": "inactive"}
{"gene": "TARP", "reagent no.": 2, "G2 robust z-score": 1.79, "G2 cells, % of GMNN control": 15.6, "activity call": "inactive"}
{"gene": "TARP", "reagent no.": 3, "G2 robust z-score": 0.59, "G2 cells, % of GMNN control": 7.12, "activity call": "inactive"}
